Reference: PMC2500165
For at least one entry, the source does not settle the construct or the ends of the probe.

Molecular target: NarP (SO3982), phosphorylated (Shewanella oneidensis MR-1) (UniProt Q8EAC5)
Assay: EMSA
Settings: carbamoyl phosphate-phosphorylated; EMSA as described for ArcA by Gao et al. [33] with SYBR Green staining; binding buffer; recombinant protein; residues 1-209; protein details: N-terminal 6xHis (pTP247, pDEST17-derived); label: none (SYBR Green staining); probe letters rebuilt from the primers and the genome

“TTGCGAGGCTCAGTTTTATCACTCGCCATAGCCCCCGCAGCCATAAAGCTGGCGGCAACCAATGCACTTAATGCAAAAGTCTTACCTGTCATCTTCTTCATCATCTCATCTCCGCGTTGCATTTTTGTTGTAAAACACGACATCTCCAGCGCCAAAGTTAGTAGCTAAATACCGCTAAAAATATACCTCTTAGGGGGTATCTGAAACGAAGTTTGCGCTAGATCAAAATGTAATAGTGTTGTTGTTCACACTTCTATGCTTTTGTTAATGTAATACATTATTTTCTAATGTAAAAAACACGGCTAAAGTACCATTAGCTCAAGCGCCACAAGGTATTCGACATATGAAACGAGGCAGTCTTACCTCAAAAATTCTGGGTTTAATGTTAGTACTGATTTTGCTTTCTAGCAGCCTAGCGATTTTCGCAATCATCAATTTGTCATACAGCTTAGGCGATGCGAAAGCCATCAACGCTTCGGGTTCACTGCGGATGCAAAGCTATCGGCTGATGTTTTACGCCAATTCTGG (double strand) [narP-nrfA promoter DNA]”: binds.
